This experiment has as its target rat Cd200 (rat) (UniProt P04218). Put plainly: AVEXIS; bait and prey pre-incubated with a range of EDTA concentrations (maximum 10 mM by the methods, approximately 30 mM by the results) for one hour before AVEXIS.

Protein sequences, listed by entry. Tags and fused reporters are not part of them. Lines headed by an entry give the natural chain unless they say otherwise; changes in a name come on top.
UniProt P04218: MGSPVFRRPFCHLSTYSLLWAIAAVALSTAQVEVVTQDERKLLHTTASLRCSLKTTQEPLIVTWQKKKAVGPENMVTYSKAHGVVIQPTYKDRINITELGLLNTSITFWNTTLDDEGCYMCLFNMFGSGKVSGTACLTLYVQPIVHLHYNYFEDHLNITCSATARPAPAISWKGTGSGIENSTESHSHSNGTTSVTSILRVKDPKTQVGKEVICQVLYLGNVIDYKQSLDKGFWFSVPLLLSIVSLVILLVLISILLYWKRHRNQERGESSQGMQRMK
UniProt Q9ES58: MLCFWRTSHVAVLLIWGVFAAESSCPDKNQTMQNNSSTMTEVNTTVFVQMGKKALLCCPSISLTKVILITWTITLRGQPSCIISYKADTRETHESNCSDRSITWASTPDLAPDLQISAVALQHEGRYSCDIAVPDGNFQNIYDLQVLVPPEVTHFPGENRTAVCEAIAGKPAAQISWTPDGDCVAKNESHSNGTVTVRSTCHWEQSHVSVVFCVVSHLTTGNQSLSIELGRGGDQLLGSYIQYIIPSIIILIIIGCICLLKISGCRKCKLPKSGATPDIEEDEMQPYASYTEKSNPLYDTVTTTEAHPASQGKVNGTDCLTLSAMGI

No constants are given. Whether binding was seen depends on the method and setting. Binding can be weak; no strength is given.

As for rat Cd200R (from UniProt Q9ES58), the binding entry is “binds”.

(Values after article PMC4478713.)
